Where a chain is given by its changes, count along the chain named. No constants are given. Whether binding was seen depends on the method and setting. For some of these results: Binding seen in cells or lysates may run through a third protein. Some results given as binding are weak or reduced against the parent protein; the word gives no strength. Sequences can lack the tags named with a protein.
B1: BSL1 (co-immunoprecipitation construct, tobacco) (enzyme, not shown: small tags and cut ends)
chain: MGSKPWLHPAPQYKTLETFWDDEDDAPGPRCAHTLTAVAATKTHGPRLILFGGATAIEGGSSSVPGIRLAGVTNTVHSYDILTRKWTRLKPAGEPPSPRAAHAAAAVGTMVVFQGGIGPAGHSTDDLYVLDMTNDKFKWHRVVVQGDGPGPRYGHVMDLVSQRYLVTVTGNDGKRALSDAWALDTAQKPYVWQRLNPDGDRPSARMYASGSARSDGMFLLCGGRDTLGAPLGDAYGLLMHRNGQWEWTLAPGVAPSPRYQHAAVFVGARLHVSGGVLRGGRVIDAEASVAVLDTAAGVWLDRNGQVTSARGSKGQIDQDPSFELMRRCRHGAASVGIRIYVHGGLRGDVLLDDFLVAENSTFQSDISSPLLASDRTQQSSTPRFSYAARPPSGSEPSFSMSEGLSLDENSLEKLTEASAAEAEVASSVWRAAQLGAGTLDEEPSTSDASSPIVESTTDGTANEGDVRLHPRAVVVAKETVGSLGGMVRQLSLDQFQNESRRMVPMNNSDVPQPTKKFTRQKSPQGLHKKVIAALLRPRNWKPPGNRKFFLDSYEVGELCYAAEQIFMHEQTVLQLKAPIKVFGDLHGQFGDLMRLFDEYGFPSTAGDITYIDYLFLGDYVDRGQHSLETITLLLALKIEYPENVHLIRGNHEAADINALFGFRLECIERMGENDGIWAWTRFNQLFNYLPLAALIENKIICMHGGIGRSISTVEQIEKIERPITMDAGSLVLMDLLWSDPTENDSIEGLRPNARGPGLVTFGPDRVTEFCKRNKLQLIIRAHECVMDGFERFAQGQLITLFSATNYCGTANNAGAILVVGRGLVIVPKLIHPLPPPILSPENSPEHSGDDAWMQELNIQRPPTPTRGRPQPDFDRSSLAYI
B2: BSL1 fused C-terminal half (cYFP) of yellow fluorescence protein (enzyme, not shown: large carriers)
chain: B1 chain

Key:
BIN2-YFP (Arabidopsis) [1] = target: T1, BIN2-YFP (Arabidopsis) (UniProt Q39011); assay: co-immunoprecipitation from tobacco cells
T1 sequence (looked up): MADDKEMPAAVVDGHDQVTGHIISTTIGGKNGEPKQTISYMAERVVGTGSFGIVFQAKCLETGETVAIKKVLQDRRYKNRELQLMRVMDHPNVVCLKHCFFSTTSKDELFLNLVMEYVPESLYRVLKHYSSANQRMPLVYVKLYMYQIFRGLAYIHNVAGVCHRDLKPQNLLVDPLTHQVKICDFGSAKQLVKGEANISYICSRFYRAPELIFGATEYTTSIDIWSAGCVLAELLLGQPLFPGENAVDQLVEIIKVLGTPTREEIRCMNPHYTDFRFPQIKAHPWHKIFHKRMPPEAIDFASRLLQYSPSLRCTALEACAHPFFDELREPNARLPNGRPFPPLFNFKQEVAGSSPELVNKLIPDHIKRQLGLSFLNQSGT

BIN2-YFP (Arabidopsis) [2] = target: T1, BIN2-YFP (Arabidopsis); assay: co-immunoprecipitation from tobacco leaves with anti-GFP antibody, blot with anti-myc
[3] = target: T2, bin2-1 fused N-terminal half (nYFP) of yellow fluorescence protein (Arabidopsis) (UniProt Q39011); assay: BiFC
T2 sequence (looked up): T1 sequence (looked up) with E263K

[4] = target: T2, bin2-1 fused N-terminal half (nYFP) of yellow fluorescence protein (Arabidopsis); assay: BiFC (FIG. 14)

Row | Binder | binding (BIN2-YFP (Arabidopsis) [1]) | binding (BIN2-YFP (Arabidopsis) [2]) | binding [3] | binding [4]
1 | B1 | binds | binds |  | 
2 | B2 |  |  | binds | binds

Reference: patent US20120322150A1, “Mechanism and Method for Regulating Glycogen Synthase Kinase 3 (GSK3)-Related Kinases” (CARNEGIE INSTITUTION OF WASHINGTON, priority 2009, published 2012)
